Reference: article PMC2853571
Results are given in words; binding and its absence hold for the method and conditions named. Binding seen in cells or lysates may run through a third protein. A yes stands for co-enrichment or nearness to the bait. Other partners may have been found.

Sequences of proteins named here, by UniProt entry; tags and fusion partners are left off.
UniProt O75923: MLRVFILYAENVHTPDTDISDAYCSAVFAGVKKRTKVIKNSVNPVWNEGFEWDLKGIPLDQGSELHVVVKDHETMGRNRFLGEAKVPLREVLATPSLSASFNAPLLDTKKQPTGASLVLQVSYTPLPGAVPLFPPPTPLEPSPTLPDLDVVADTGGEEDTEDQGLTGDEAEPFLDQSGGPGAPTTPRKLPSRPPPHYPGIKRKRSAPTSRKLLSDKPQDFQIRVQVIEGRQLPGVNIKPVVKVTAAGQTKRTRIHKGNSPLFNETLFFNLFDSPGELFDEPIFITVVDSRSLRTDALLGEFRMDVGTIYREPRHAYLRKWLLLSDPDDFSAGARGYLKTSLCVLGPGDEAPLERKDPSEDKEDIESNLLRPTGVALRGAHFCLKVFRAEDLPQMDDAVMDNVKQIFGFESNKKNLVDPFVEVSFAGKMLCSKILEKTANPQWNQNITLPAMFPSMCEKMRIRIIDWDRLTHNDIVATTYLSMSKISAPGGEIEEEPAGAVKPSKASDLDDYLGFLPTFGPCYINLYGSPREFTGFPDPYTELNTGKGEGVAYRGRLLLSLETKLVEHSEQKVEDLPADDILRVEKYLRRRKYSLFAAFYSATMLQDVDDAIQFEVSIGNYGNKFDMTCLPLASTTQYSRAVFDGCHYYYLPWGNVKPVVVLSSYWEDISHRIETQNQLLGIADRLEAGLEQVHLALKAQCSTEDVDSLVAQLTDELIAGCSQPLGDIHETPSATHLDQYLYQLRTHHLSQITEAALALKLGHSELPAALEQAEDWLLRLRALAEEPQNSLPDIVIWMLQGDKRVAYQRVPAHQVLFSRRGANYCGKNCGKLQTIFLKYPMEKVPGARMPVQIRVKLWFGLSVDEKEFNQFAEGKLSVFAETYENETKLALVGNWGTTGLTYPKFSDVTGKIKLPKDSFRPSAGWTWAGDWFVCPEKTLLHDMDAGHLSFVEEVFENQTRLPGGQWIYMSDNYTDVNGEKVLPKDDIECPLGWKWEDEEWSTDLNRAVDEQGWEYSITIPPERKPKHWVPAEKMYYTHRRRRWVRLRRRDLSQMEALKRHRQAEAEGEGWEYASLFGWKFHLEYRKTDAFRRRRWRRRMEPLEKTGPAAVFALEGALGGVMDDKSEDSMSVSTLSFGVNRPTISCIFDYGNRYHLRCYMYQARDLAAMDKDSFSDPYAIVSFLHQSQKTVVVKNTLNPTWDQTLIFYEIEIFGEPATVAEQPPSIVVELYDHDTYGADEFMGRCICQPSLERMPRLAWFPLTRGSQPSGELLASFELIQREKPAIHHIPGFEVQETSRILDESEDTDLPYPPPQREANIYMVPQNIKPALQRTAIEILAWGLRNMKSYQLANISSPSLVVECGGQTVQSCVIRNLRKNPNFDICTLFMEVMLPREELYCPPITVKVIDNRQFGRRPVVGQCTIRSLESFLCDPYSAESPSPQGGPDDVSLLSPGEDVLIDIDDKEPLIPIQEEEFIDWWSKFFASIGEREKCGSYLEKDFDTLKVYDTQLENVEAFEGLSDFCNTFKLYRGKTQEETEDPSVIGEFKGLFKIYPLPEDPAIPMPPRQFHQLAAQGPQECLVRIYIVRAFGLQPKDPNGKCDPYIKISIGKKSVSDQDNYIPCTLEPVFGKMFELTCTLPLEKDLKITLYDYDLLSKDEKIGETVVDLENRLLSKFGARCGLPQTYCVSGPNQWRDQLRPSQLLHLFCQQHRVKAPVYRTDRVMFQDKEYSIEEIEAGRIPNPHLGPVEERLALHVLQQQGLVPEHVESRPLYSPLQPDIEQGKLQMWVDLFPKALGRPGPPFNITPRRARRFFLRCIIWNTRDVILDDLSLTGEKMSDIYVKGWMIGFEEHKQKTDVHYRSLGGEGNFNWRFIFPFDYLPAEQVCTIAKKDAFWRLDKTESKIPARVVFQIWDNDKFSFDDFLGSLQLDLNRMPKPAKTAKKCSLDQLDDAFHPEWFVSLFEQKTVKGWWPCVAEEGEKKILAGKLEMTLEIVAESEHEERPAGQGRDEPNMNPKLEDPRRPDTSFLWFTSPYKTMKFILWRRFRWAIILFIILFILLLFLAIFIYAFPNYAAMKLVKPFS
UniProt P07356: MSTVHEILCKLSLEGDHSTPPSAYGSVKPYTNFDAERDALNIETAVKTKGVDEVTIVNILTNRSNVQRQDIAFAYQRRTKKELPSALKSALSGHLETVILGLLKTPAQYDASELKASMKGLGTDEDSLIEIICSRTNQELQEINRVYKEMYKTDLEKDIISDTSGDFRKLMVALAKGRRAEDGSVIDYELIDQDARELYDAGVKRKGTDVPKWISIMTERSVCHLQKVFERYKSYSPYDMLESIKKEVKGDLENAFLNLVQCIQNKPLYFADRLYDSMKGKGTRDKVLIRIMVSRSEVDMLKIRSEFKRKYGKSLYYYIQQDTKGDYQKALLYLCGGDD

B1: affixin (protein, UniProt Q9ES46 1-365)
chain: MSSAPPRSPTPRAPKMKKDESFLGKLGGTLARKKKTREVTDLQEEGKSAINSPMAPALVDIHPEDTQLEENEERTMIDPTSREDPKFKELVKVLLDWINDVLAEERIIVKQLEEDLYDGQVLQKLLEKLAHCKLNVAEVTQSEIGQKQKLQTVLEAVQDLLRPHGWPLRWNVDSIHGKNLVAILHLLVSLAMHFRAPIHLPEHVTVQVVVVRKREGLLHSSHISEELTTTTEIMMGRFERDAFDTLFDHAPDKLNLVKKSLITFVNKHLNKLNLEVTDLETQFADGVYLVLLLGLLEDYFVPLHNFYLTPDSFDQKVHNVAFAFELMLDGGLKKPKARPEDVVNLDLKSTLRVLYTLFTKYKDVE
B2: calpain-3 (protein, UniProt Q64691 1-821)
chain: MPTVISPTVAPRTGAEPRSPGPVPHPAQGKTTEAGGGHPSGIYSAIISRNFPIIGVKEKTFEQLRRKCLEKKVLYLDPEFPPDETSLFYSQKFPIQFVWKRPPEICENPRFIIGGANRTDICQGDLGDCWFLAAIACLTLNERLLFRVIPHDQSFTENYAGIFHFQFWRYGDWVDVVIDDCLPTYNNQLVFTKSNHRNEFWSALLEKAYAKLHGSYEALKGGNTTEAMEDFTGGVTEFFEIKDAPSDMYKIMRKAIERGSLMGCSIDDGTNMTYGTSPSGLNMGELIARMVRNMDNSLLRDSDLDPRGSDDRPSRTIVPVQYETRMACGLVKGHAYSVTGLEEALFKGEKVKLVRLRNPWGQVEWNGSWSDGWKDWSFVDKDEKARLQHQVTEDGEFWMSYDDFVYHFTKLEICNLTADALESDKLQTWTVSVNEGRWVRGCSAGGCRNFPDTFWTNPQYRLKLLEEDDDPEDSEVICSFLVALMQKNRRKDRKLGANLFTIGFAIYEVPKEMHGNKQHLQKDFFLYNASKARSKTYINMREVSQRFRLPPSEYVIVPSTYEPHQEGEFILRVFSEKRNLSEEAENTISVDRPVKKKKNKPIIFVSDRANSNKELGVDQEAEEGKDKAGPEKRGETPQPRPGHTDQESEEQQQFRNIFRQIAGDDMEICADELKNVLNTVVNKHKDLKTQGFTLESCRSMIALMDTDGSGRLNLQEFHHLWKKIKAWQKIFKHYDTDHSGTINSYEMRNAVNDAGFHLNSQLYDIITMRYADKHMNIDFDSFICCFVRLEGMFRAFNAFDKDGDGIIKLNVLEWLQLTMYA

target: His-myc-dysferlin (UniProt O75923); assay: affinity purification with mass spectrometry; His-myc-dysferlin from HEK293T lysate held on protein A-Sepharose beads coated with anti-myc monoclonal antibody, washed, incubated with mouse skeletal muscle homogenate; SDS-PAGE, in-gel trypsin digestion, LC-MS/MS; control: non-transfected HEK293T extract; repeated twice; only the target purified

binding, binds:
AHNAK (from UniProt E9Q616 1-5656), annexin A2 (from UniProt P07356 1-339), B1, B2
